Results published in patent publication US6686353B1, “Diarylalkyl cyclic diamine derivatives as chemokine receptor antagonists” (Teijin Intellectual Property Center Limited, priority 1996, dated 2004).
Some of these results come from one statement about several compounds together.

target: T1, human MIP-1α binding to THP-1 cells (Homo sapiens, UniProt P32246); assay: Inhibition of MIP-1α binding to THP-1 cells; conditions: at 100 μM test compound
T1 construct: endogenous in cells; host or cells: THP-1 (human monocytic leukemia cell line), whole cells
T1 sequence (P32246 1-355): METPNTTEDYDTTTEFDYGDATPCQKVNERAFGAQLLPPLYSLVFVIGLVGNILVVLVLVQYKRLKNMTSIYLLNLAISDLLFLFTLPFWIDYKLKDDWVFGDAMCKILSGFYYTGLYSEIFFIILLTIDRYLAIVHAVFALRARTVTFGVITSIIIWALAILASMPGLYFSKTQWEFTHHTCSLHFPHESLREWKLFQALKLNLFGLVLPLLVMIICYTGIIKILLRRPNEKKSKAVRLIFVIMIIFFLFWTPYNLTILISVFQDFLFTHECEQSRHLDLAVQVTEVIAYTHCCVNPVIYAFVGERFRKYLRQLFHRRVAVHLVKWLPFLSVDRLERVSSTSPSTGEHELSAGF
Description: Measurement of Inhibition of MIP-1α Binding to THP-1 Cells by Test Compounds
Human monocytic leukemia cell line THP-1 was suspended in assay buffer (RPMI-1640 (Gibco-BRL Co.) containing 0.1% BSA and 25 mM HEPES adjusted to pH 7.4) to give a cell suspension of a concentration of 1×10^7 cells/mL. The test compound was diluted in the assay buffer and used as the test compound solution. Iodinated human MIP-1α (DuPont NEN Co.) was diluted in assay buffer to 250 nCi/mL and used as the ligand solution. In a 96 well filter plate (Millipore Co.), 25 μL of test compound solution. 25 μL of labeled ligand solution and 50 μL of cell suspension were aliquoted into each well in this order, stirred (total reaction volume 100 μL), and incubated for one hour at 18° C.
(§1) After the reaction, the reaction solution was filtered, and the filter was washed twice with 200 μL of cold PBS (200 μL of cold PBS was added and then filtered). The filter was removed and placed in an RIA tube (Iuchi Seieido Co.) and the radioactivity retained by the cells on the filter were measured using a gamma counter (Aloka Co.).
To calculate the ability of test compounds to inhibit binding of human MIP-1α to THP-1 cells, non-specific binding determined by adding 100 ng of unlabeled human MIP-1α (Peprotech Co.) in place of the test compound was subtracted, while the counts with no test compound added was taken as 100%.
(§2) Inhibition (%)=(1−(A−B)/(C−B))×100
(A, counts with test compound added: B, counts with 100 ng of unlabeled human MIP-1α added: C, counts with [^125I]-labeled human MIP-1α added).

Inhibitory activity (inhibition of human MIP-1α binding to THP-1 cells), > 20%:
N#Cc1ccc(CN2CCN(CCC(c3ccccc3)c3ccccc3)CC2)cc1 [Compound No. 9], N=C(CN1CCCN(CCC(c2ccccc2)c2ccccc2)CC1)NS(=O)(=O)c1ccc(Cl)cc1 [Compound No. 71], N#Cc1ccccc1CN1CCCN(CCC(c2ccccc2)c2ccccc2)CC1 [Compound No. 75], O=C(CN1CCCN(CCC(c2ccccc2)c2ccccc2)CC1)Nc1cc([N+](=O)[O-])ccc1O [Compound No. 76], O=[N+]([O-])c1ccc(O)c(CN2CCCN(CCC(c3ccccc3)c3ccccc3)CC2)c1 [Compound No. 81], O=C(c1ccccc1N1CCNC1=O)N1CCCN(CCC(c2ccccc2)c2ccccc2)CC1 [Compound No. 204], CC#CCN1CCCN(CCC(c2ccccc2)c2ccccc2)CC1 [Compound No. 210], c1ccc(C(CCN2CCCN(CC3CC3)CC2)c2ccccc2)cc1 [Compound No. 211], O=c1cc(CN2CCCN(CCC(c3ccccc3)c3ccccc3)CC2)c2ccc(O)cc2o1 [Compound No. 212], Cc1cc(-c2onc(C)c2CN2CCCN(CCC(c3ccccc3)c3ccccc3)CC2)no1 [Compound No. 216], c1ccc(C(CCN2CCCN(Cc3ncon3)CC2)c2ccccc2)cc1 [Compound No. 250], CCCCCCN(CCCCCC)C(=O)CN1CCCN(CCC(c2ccccc2)c2ccccc2)CC1 [Compound No. 270], Clc1ccc(CN2CCCN(CCC(c3ccccc3)c3ccccc3)CC2)cc1 [compound 34], Clc1ccc(CN2CCCN(CCC(c3ccc(Cl)cc3)c3ccc(Cl)cc3)CC2)cc1 [compound 53], Fc1ccc(C(CCN2CCCN(Cc3ccc(Cl)cc3)CC2)c2ccc(F)cc2)cc1 [compound 54], Oc1ccc(CN2CCCN(CCC(c3ccccc3)c3ccccc3)CC2)cc1 [compound 57], Oc1ccc(C(CCN2CCCN(Cc3ccc(Cl)cc3)CC2)c2ccc(O)cc2)cc1 [compound 66], COc1ccc(C(O)(CCN2CCCN(Cc3ccc(Cl)cc3)CC2)c2ccc(OC)cc2)cc1 [compound 111], COc1cccc(C(O)(CCN2CCCN(Cc3ccc(Cl)cc3)CC2)c2cccc(OC)c2)c1 [compound 112], CS(=O)(=O)c1ccc(CN2CCCN(CCCC(O)(c3ccccc3)c3ccccc3)CC2)cc1 [compound 197]

target: T2, human MCP-1 binding to THP-1 cells (Homo sapiens, UniProt P41597); assay: Inhibition of [125I]-labeled human MCP-1 binding to THP-1 cells; conditions: at 100 μM test compound
T2 construct: endogenous in cells; host or cells: THP-1 (human monocytic leukemia cell line), whole cells
T2 sequence (P41597 1-360 isoform P41597-2): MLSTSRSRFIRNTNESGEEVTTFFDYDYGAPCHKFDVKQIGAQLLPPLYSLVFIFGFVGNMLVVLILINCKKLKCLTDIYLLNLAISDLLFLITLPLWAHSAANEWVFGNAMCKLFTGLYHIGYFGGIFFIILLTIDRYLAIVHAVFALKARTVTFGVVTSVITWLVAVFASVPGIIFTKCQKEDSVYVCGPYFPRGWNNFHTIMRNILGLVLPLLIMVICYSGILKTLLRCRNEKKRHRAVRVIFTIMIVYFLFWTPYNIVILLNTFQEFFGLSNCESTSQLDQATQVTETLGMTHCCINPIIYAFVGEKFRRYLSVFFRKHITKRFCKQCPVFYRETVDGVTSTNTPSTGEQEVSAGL
Source text: Measurement of Inhibition of MCP-1 Binding to TP-1 Cells
1. Construction of Recombinant Baculovirus Carrying the Human MCP-1 Gene
Based on the previously published human MCP-1 gene sequence (for example T. Yoshimura et al., Febs Letters, 1989, 244, 487-493), two synthetic DNA primers (5′-[…]-3′ and 5′-[…]-3′) flanked by restriction enzyme sites were used to amplify a DNA fragment from cDNA derived from human endothelial cells (purchased from Kurabow Co.); the amplified fragment was cut with the restriction enzymes (PstI and XbaI), ligated into a transfer vector pVL1393 (Invitrogen Co.), and the resulting vector was co-transfected along with infectious baculovirus into Sf-9 insect cells and the supernatant was plaque assayed to yield human MCP-1 gene baculovirus recombinant.
2. Synthesis of [^125I]-labeled Human MCP-1 Expressed in Baculovirus
Using the method of K. Ishii et al. (Biochem Biophys Research Communications 1995, 206, 955-961), 5×10^6 Sf-6 insect cells was infected with 5×10^7 PFU (plaque forming units) of the above human MCP-1 recombinant baculovirus and cultured for 7 days in Ex-Cell 401 medium. The culture supernatant was affinity purified using a heparin Sepharose column (Pharmacia Co.) and then further purified using reverse phase HPLC (Vydac C18 column) to prepare purified human MCP-1. The purified human MCP-1 was protein labeled by Amersham Co. using the Bolton Hunter method to yield [^125I]-labeled baculovirus expressed human MCP-1 (specific activity 2000 Ci/mmol).
3. Measurement of Inhibition of Binding of [^125I]-labeled Baculovirus Expressed Human MCP-1 to THP-1 Cells
Human monocytic leukemia cell line THP-1 was suspended in assay buffer (RPMI-1640 (Gibco-BRL Co.) containing 0.1% BSA and 25 mM HEPES adjusted to pH 7.4) to give a cell suspension of a concentration of 1×10^7 cells/mL. The test compound was diluted in the assay buffer and used as the test compound solution. [^125I]-labeled human MCP-1 described above was diluted in assay buffer to 1 mCi/mL and used as the labeled ligand solution. In a 96 well filter plate (Millipore Co.), 25 μL of test compound solution, 25 μL of labeled ligand solution and 50 μL of cell suspension were aliquoted into each well in this order, stirred (total reaction volume 100 μL), and incubated for one hour at 18° C.
as §1, with “Seieido Co.,),” for “Seieido Co.)”
To calculate the ability of test compound to inhibit binding of human MCP-1 to THP-1 cells, non-specific binding determined by adding 100 ng of unlabeled human MCP-1 in place of the test compound was subtracted, while the counts with no test compound added was taken as 100%.
as §2
(A, counts with test compound added; B, counts with 100 ng of unlabeled human […] added; C, counts with [^125I]-labeled human MCP-1 added).

Inhibitory activity (inhibition of human MCP-1 binding to THP-1 cells), > 20%:
N#Cc1ccc(CN2CCN(CCC(c3ccccc3)c3ccccc3)CC2)cc1 [Compound No. 9], N#Cc1ccccc1CN1CCCN(CCC(c2ccccc2)c2ccccc2)CC1 [Compound No. 75], O=C(CN1CCCN(CCC(c2ccccc2)c2ccccc2)CC1)Nc1cc([N+](=O)[O-])ccc1O [Compound No. 76], CS(=O)(=O)c1ccc(CN2CCCN(CCC(O)(c3cccc(O)c3)c3cccc(CCO)c3)CC2)cc1 (stereo not shown) [compound 145], CS(=O)(=O)c1ccc(CN2CCCN(CCC(O)(c3ccccc3)c3cccc(Oc4ccccc4)c3)CC2)cc1 (stereo not shown) [compound 147], COc1cc(C(O)(CCN2CCCN(Cc3ccc(S(C)(=O)=O)cc3)CC2)c2ccccc2)ccc1O (stereo not shown) [compound 148], COc1cc(O)cc(C(O)(CCN2CCCN(Cc3ccc(S(C)(=O)=O)cc3)CC2)c2ccccc2)c1 (stereo not shown) [compound 149], CS(=O)(=O)c1ccc(CN2CCCN(CCC(O)(c3ccccc3)c3ccc(CO)cc3)CC2)cc1 (stereo not shown) [compound 151], CS(=O)(=O)c1ccc(CN2CCCN(CCC(O)(c3ccccc3)c3ccccc3CO)CC2)cc1 (stereo not shown) [compound 152], CS(=O)(=O)c1ccc(CN2CCCN(CCC(O)(c3ccccc3)c3nccs3)CC2)cc1 (stereo not shown) [compound 153], COc1ccc2cc(C(O)(CCN3CCCN(Cc4ccc(S(C)(=O)=O)cc4)CC3)c3cccc(O)c3)ccc2c1 (stereo not shown) [compound 154], CCCCCCCCc1ccc(C(O)(CCN2CCCN(Cc3ccc(S(C)(=O)=O)cc3)CC2)c2cccc(O)c2)cc1 (stereo not shown) [compound 155], CS(=O)(=O)c1ccc(CN2CCCN(CCC(O)(c3ccccc3)c3ccc[nH]3)CC2)cc1 (stereo not shown) [compound 156], CS(=O)(=O)c1ccc(CN2CCCN(CCC(O)(c3cccc(O)c3)c3ncc[nH]3)CC2)cc1 (stereo not shown) [compound 157], CS(=O)(=O)c1ccc(CN2CCCN(CCC(O)(c3cccc(O)c3)c3cccc(C(F)(F)F)c3)CC2)cc1 (stereo not shown) [compound 158], CS(=O)(=O)c1ccc(CN2CCCN(CCC(O)(c3ccccc3)c3cccc(N)c3)CC2)cc1 (stereo not shown) [compound 159], CS(=O)(=O)c1ccc(CN2CCCN(CCC(O)(c3ccc(C(O)c4ccccc4)cc3)c3cccc(O)c3)CC2)cc1 (stereo not shown) [compound 161]
